No constants are given. Whether binding was seen depends on the method and setting. In cells and extracts the contact can be indirect. Here binding means that the protein was enriched with, or labelled near, the bait; the list need not be complete.
B1: FOXA1 (protein, UniProt P55317 1-472)
chain: MLGTVKMEGHETSDWNSYYADTQEAYSSVPVSNMNSGLGSMNSMNTYMTMNTMTTSGNMTPASFNMSYANPGLGAGLSPGAVAGMPGGSAGAMNSMTAAGVTAMGTALSPSGMGAMGAQQAASMNGLGPYAAAMNPCMSPMAYAPSNLGRSRAGGGGDAKTFKRSYPHAKPPYSYISLITMAIQQAPSKMLTLSEIYQWIMDLFPYYRQNQQRWQNSIRHSLSFNDCFVKVARSPDKPGKGSYWTLHPDSGNMFENGCYLRRQKRFKCEKQPGAGGGGGSGSGGSGAKGGPESRKDPSGASNPSADSPLHRGVHGKTGQLEGAPAPGPAASPQTLDHSGATATGGASELKTPASSTAPPISSGPGALASVPASHPAHGLAPHESQLHLKGDPHYSFNHPFSINNLMSSSEQQHKLDFKAYEQALQYSPYGSTLPASLPLGSASVTTRSPIEPSALEPAYYQGVYSRPVLNTS
B2: TBL1X (protein, UniProt O60907 1-577)
chain: MTELAGASSSCCHRPAGRGAMQSVLHHFQRLRGREGGSHFINTSSPRGEAKMSITSDEVNFLVYRYLQESGFSHSAFTFGIESHISQSNINGTLVPPAALISILQKGLQYVEAEISINEDGTVFDGRPIESLSLIDAVMPDVVQTRQQAFREKLAQQQASAAAAAAAATAAATAATTTSAGVSHQNPSKNREATVNGEENRAHSVNNHAKPMEIDGEVEIPSSKATVLRGHESEVFICAWNPVSDLLASGSGDSTARIWNLNENSNGGSTQLVLRHCIREGGHDVPSNKDVTSLDWNTNGTLLATGSYDGFARIWTEDGNLASTLGQHKGPIFALKWNRKGNYILSAGVDKTTIIWDAHTGEAKQQFPFHSAPALDVDWQNNTTFASCSTDMCIHVCRLGCDRPVKTFQGHTNEVNAIKWDPSGMLLASCSDDMTLKIWSMKQEVCIHDLQAHNKEIYTIKWSPTGPATSNPNSNIMLASASFDSTVRLWDIERGVCTHTLTKHQEPVYSVAFSPDGKYLASGSFDKCVHIWNTQSGNLVHSYRGTGGIFEVCWNARGDKVGASASDGSVCVLDLRK

By UniProt entry, the sequences of proteins in these tests, tags left out. Where a name states a change or a piece, a line headed by the entry shows the natural chain unless it says otherwise.
UniProt Q92826: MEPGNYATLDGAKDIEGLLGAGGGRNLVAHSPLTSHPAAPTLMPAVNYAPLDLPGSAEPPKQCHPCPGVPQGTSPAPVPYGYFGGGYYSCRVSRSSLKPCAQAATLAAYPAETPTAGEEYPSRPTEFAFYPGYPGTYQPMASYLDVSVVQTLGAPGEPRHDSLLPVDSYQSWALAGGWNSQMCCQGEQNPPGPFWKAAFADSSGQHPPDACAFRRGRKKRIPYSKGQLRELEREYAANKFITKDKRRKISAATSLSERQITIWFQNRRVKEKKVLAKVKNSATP
UniProt P23769: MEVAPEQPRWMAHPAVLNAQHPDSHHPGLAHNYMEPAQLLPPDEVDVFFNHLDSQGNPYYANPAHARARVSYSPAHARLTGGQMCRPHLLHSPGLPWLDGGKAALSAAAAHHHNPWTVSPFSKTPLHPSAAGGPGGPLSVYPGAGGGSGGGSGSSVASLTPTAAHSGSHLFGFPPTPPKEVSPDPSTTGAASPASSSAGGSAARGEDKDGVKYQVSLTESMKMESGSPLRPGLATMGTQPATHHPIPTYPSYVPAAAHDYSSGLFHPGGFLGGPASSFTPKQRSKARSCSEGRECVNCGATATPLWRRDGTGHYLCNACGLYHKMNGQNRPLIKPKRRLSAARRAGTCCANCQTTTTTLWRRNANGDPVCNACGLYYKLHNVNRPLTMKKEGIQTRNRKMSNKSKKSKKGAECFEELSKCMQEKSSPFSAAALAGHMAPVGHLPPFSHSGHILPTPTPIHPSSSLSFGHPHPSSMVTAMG
UniProt Q13547: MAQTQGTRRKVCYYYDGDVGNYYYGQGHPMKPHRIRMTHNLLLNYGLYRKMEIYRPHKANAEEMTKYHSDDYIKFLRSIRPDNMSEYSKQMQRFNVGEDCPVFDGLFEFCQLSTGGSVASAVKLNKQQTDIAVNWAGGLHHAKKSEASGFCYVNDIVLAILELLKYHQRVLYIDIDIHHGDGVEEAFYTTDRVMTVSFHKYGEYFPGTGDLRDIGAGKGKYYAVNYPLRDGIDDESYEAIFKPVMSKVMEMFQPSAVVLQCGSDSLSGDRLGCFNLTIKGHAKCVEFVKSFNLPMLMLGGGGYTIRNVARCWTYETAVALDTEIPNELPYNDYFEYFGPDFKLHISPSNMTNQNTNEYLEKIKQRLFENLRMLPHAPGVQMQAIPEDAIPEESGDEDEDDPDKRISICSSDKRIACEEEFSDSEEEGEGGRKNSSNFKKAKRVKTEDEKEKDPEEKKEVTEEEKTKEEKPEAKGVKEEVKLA
UniProt O15379: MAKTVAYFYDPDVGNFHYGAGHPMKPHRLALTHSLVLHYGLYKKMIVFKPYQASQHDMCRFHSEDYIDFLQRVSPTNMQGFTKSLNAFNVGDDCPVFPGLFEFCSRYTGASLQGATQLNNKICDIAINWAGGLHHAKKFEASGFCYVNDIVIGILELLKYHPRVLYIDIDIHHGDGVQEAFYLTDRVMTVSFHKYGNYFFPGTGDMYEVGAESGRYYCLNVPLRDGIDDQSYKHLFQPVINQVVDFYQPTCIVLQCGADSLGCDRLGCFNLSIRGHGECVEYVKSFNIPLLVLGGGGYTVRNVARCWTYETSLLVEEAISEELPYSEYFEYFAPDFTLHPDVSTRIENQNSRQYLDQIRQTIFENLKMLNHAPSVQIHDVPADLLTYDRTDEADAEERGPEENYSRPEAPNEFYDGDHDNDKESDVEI
UniProt P10275: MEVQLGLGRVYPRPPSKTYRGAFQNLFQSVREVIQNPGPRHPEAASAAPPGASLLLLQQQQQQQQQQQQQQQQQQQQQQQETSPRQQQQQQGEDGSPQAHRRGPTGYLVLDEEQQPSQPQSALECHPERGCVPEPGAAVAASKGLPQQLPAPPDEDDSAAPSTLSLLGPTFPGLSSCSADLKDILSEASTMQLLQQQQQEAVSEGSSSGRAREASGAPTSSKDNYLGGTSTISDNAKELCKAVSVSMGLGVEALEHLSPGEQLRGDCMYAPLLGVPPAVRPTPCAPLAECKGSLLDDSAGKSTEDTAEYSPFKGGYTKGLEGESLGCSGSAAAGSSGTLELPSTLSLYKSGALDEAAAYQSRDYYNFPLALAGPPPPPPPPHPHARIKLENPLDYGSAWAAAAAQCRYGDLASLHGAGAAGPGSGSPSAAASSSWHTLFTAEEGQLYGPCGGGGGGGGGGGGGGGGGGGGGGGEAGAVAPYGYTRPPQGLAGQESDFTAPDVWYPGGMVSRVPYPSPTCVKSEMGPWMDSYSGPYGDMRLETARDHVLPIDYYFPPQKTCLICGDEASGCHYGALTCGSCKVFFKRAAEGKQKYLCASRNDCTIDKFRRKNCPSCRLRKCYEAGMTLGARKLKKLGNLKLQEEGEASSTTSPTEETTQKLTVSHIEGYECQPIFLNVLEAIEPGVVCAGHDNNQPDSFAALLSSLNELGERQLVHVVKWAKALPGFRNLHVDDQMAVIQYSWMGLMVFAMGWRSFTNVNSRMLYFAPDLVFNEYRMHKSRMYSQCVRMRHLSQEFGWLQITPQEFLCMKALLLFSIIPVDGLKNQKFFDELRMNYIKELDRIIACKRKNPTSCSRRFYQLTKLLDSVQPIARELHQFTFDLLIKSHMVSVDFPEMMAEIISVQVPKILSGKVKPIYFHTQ

What was measured:
HOXB13 WT-SFB = HOXB13 WT-SFB (UniProt Q92826); test: affinity purification with mass spectrometry
HOXB13 G84E-SFB = HOXB13 G84E-SFB (UniProt Q92826); test: affinity purification with mass spectrometry

| Molecule | binding (HOXB13 WT-SFB) | binding (HOXB13 G84E-SFB) |
| --- | --- | --- |
| GATA2 (from UniProt P23769 1-480) | binds | binds |
| HDAC1 (from UniProt Q13547 1-482) (enzyme) | binds |  |
| HDAC3 (from UniProt O15379 1-428) (enzyme) | binds |  |
| androgen receptor (AR) (from UniProt P10275 1-920) | binds | binds |
| B1 | binds | binds |
| B2 | binds |  |
